For at least one compound, name, drawing or mass did not settle the structure.
Test system: S. aureus Met-R multiresistant strains
Assay: MIC determination (NCCLS broth microdilution), methicillin-resistant multiresistant S. aureus strains
Type: cell-based, Staphylococcus aureus
Parameters: unit not given beside the values
Settings: S. aureus (50) Met-R
Procedure: The MICs of thiamphenicol and of other antibiotics was obtained by using the method proposed by NCCLS (National Committee for Clinical Laboratory Standards, 1999).
Various antibiotic concentrations were added to bacteria in exponental growth (final inoculum 5×10^5 […]); dilution in Mb (cation-supplemented Mueller-Hinton broth) and distribution on a microplate by using an automatic diluting machine Biomek 1000 (Beckman, USA). MHb charged with 2% NaCl was used to test the methicillin activity.
The antibiotic concentration which hinders a visible growth after 18-24 hours of incubation at 37° C., was registered as MIC.
S. aureus ATCC 29213 was used as quality control strain.

In the case of `CCC[C@@H]1C[C@@H](C(=O)N[C@@H]([C@H]2O[C@H](SC)[C@H](O)[C@@H](O)[C@H]2O)[C@H](C)Cl)N(C)C1` [Clindamycin, clindamycin], the “MIC Range” value is reported as 0,06->64.
